Reference: patent US20220267427A1
No constants are given. Whether binding was seen depends on the method and setting. Some binding calls cover weakened binding; strength is not graded here.

How the values were obtained:
[1] = biological target: T1, fCK18 in apoptosis-induced HepG2 cell culture supernatant (human) (UniProt P05783); assay: immunoprecipitation with antibody-bound magnetic microbeads, Western blot detected with K18-328Fab-ALP
T1 sequence: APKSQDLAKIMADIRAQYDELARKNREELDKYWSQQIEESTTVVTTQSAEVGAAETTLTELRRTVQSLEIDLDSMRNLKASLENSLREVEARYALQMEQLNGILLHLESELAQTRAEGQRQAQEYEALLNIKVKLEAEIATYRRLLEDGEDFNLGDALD

[2] = biological target: T1, fCK18 in apoptosis-induced HepG2 cell culture supernatant (human); assay: sandwich immunoassays of Example 4 against the commercial M30 kit

B1: K18-624 antibody (antibody, V domains shown)
VH: DVQLVESGGGLVQPGGSRKLSCAASGFTFSSFGMHWVRQAPEKGLEWVAYISSGSTTIYYADTVKGRFTISRDNPKNTLFLQMTSLRSEDTAMYYCARRGMITTGAWFAYWGQGTLVTVSA
VL: DILLTQSPAILSVSPGERVSFSCRASQRIGTSIHWYQQRTNGSPRLLIKYASESISGIPSRFSGSGSGTDFTLSINSVESEDIADYYCQQSYIWPFTFGSGTKLEIK
binding [1]: binds
binding [2]: binds
